Some of the results follow.

By UniProt entry, the sequences of proteins in these tests, tags left out.
UniProt O95931, whole entry: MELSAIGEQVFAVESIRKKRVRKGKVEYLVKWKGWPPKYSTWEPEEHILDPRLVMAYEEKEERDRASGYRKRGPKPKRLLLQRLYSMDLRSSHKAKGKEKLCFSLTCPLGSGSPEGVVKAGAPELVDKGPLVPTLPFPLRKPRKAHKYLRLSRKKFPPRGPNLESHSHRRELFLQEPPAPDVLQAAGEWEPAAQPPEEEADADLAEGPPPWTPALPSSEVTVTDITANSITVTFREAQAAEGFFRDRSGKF

The experiment addresses Chromobox protein homolog 7 (Homo sapiens) (UniProt O95931). As to the kind of experiment: CBX7 chromodomain binding inhibitors, primary screen, biochemical, AlphaScreen (AID 1224903). Conditions: AlphaScreen His6-CBX7 / biotin-H3K27me3 peptide binding; measured here: z-score of CBX7 signal; stronger effect = lower value. (In general: Bead proximity is the source of the signal in Alpha formats.)
As to `NC(=O)C1(Nc2ccccc2)CCN(Cc2ccccc2)CC1`, the z-score was -1.19.

In the case of `COc1ccc(NC2CCN(CCCC(=O)c3ccc(F)cc3)CC2)cc1`, the z-score is -1.03.

Regarding `O=C(CCCN1CCC(Nc2ccccc2)CC1)c1ccc(F)cc1`, the z-score was -3.22.

`CN1CCN(CCOC(=O)C(O)(c2ccccc2)c2ccccc2)CC1`: the z-score is -0.334.

For the origin of these results see PubChem BioAssay AID1224903 (Bradner/Qi Labs at DFCI, 2016).
